Sequences of proteins named here, by UniProt entry; tags and fusion partners are left off. A change or cut given only in a name is not applied to a line headed by its entry.
UniProt Q86U42: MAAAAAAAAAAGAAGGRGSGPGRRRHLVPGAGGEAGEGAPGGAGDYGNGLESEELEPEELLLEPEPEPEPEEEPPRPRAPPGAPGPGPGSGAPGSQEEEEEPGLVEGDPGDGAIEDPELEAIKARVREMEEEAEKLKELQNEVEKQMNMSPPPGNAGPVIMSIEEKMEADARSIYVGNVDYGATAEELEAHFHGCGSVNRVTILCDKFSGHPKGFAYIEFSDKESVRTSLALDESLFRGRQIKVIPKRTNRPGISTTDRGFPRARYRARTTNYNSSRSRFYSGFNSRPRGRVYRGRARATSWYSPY

In article PMC11381358, “Phosphorylation of the nuclear poly(A) binding protein (PABPN1) during mitosis protects mRNA from hyperadenylation and maintains transcriptome dynamics”:

What was measured:
[1] = biological target: His-MBP-PABPN1 4SA (human) (UniProt Q86U42); test: filter binding; conditions: 50 mM Tris-HCl pH 8.0, 100 mM KCl, 5 mM MgCl2, 2 mM EDTA, 10% glycerol, 0.2 mg/ml BSA, 0.01% NP-40, 0.5 mM DTT, 2 U/ul RNase OUT; 500 pM RNA, protein 62.5 nM-4 uM; recombinant protein; protein details: N-terminal His-MBP (uncleaved); label: 5'-32P
[2] = biological target: His-MBP-PABPN1 4SD (human) (UniProt Q86U42); test: filter binding; conditions: 50 mM Tris-HCl pH 8.0, 100 mM KCl, 5 mM MgCl2, 2 mM EDTA, 10% glycerol, 0.2 mg/ml BSA, 0.01% NP-40, 0.5 mM DTT, 2 U/ul RNase OUT; 500 pM RNA, protein 62.5 nM-4 uM; recombinant protein; protein details: N-terminal His-MBP (uncleaved); label: 5'-32P

AAAAAAAAAAAAAAAAAAAAAAAAAAAAAA [poly(A)30]
binding result [1]: binds
binding result [2]: binds

Construct, isoform or probe ends are uncertain for at least one entry.
